Common to all, as to experiment: glycan array binding signal (z-score within array); higher = stronger binding
Common to all, as to settings: glycan notation: IUPAC condensed, linker removed

Assay [1] has as its target Gal(b1-4)GlcNAc(b1-2)Man(a1-6)[GlcNAc(b1-2)Man(a1-3)]Man(b1-4)GlcNAc(b1-4)GlcNAc. A digest of the protocol:
(§1)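 Glycan array data came from 3228 arrays in the Consortium for Functional Glycomics database, and only arrays with an available protein sequence were kept. Glycan names were put into IUPAC-condensed notation, and columns mapping to the same glycan were averaged. The binding signal is a within-array Z-score, averaged across arrays of one protein sequence run at different concentrations or buffers and across linkers. A negative Z-score can be read as non-binding.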

Assay [2] addresses Gal(b1-4)GlcNAc(b1-2)Man(a1-6)[Man(a1-3)]Man(b1-4)GlcNAc(b1-4)GlcNAc. A digest of the protocol: as §1
The target in assay [3] is Gal(b1-4)GlcNAc(b1-2)[Gal(b1-4)GlcNAc(b1-4)]Man(a1-3)[Gal(b1-4)GlcNAc(b1-2)Man(a1-6)]Man(b1-4)GlcNAc(b1-4)GlcNAc. A digest of the protocol: as §1
Assay [4] deals with Gal(b1-4)GlcNAc(b1-2)[Gal(b1-4)GlcNAc(b1-4)]Man(a1-3)[Gal(b1-4)GlcNAc(b1-2)[Gal(b1-4)GlcNAc(b1-6)]Man(a1-6)]Man(b1-4)GlcNAc(b1-4)GlcNAc. A digest of the protocol:
as §1

The target of assay [5] is Gal(b1-4)GlcNAc(b1-2)[Gal(b1-4)GlcNAc(b1-4)]Man(a1-3)[GlcNAc(b1-4)][Gal(b1-4)GlcNAc(b1-2)Man(a1-6)]Man(b1-4)GlcNAc(b1-4)GlcNAc. A digest of the protocol: as §1
For assay [6], the target named is Gal(b1-4)GlcNAc(b1-2)[Gal(b1-4)GlcNAc(b1-4)]Man(a1-3)[GlcNAc(b1-4)][Gal(b1-4)GlcNAc(b1-2)[Gal(b1-4)GlcNAc(b1-6)]Man(a1-6)]Man(b1-4)GlcNAc(b1-4)GlcNAc. A digest of the protocol:
as §1

Assay [7] deals with Gal(b1-4)GlcNAc(b1-2)[Gal(b1-4)GlcNAc(b1-6)]Man(a1-6)[Gal(b1-4)GlcNAc(b1-2)Man(a1-3)]Man(b1-4)GlcNAc(b1-4)GlcNAc. The essentials: as §1
The target of assay [8] is Gal(b1-4)GlcNAc(b1-2)[Gal(b1-4)GlcNAc(b1-6)]Man(a1-6)[Gal(b1-4)GlcNAc(b1-2)Man(a1-3)]Man(b1-4)GlcNAc(b1-4)[Fuc(a1-6)]GlcNAc. The essentials: as §1
Assay [9] concerns the target Gal(b1-4)GlcNAc(b1-2)[Gal(b1-4)GlcNAc(b1-6)]Man(a1-6)[GlcNAc(b1-4)][Gal(b1-4)GlcNAc(b1-2)Man(a1-3)]Man(b1-4)GlcNAc(b1-4)GlcNAc. The essentials: as §1
The target in assay [10] is Gal(b1-4)GlcNAc(b1-2)[Gal(b1-4)GlcNAc(b1-6)]Man(a1-6)[GlcNAc(b1-4)][Gal(b1-4)GlcNAc(b1-2)[Gal(b1-4)GlcNAc(b1-4)]Man(a1-3)]Man(b1-4)GlcNAc(b1-4)[Fuc(a1-6)]GlcNAc. The essentials: as §1
Assay [11] concerns the target Gal(b1-4)GlcNAc(b1-3)Gal(b1-3)GalNAc. The essentials: as §1
For assay [12], the target named is Gal(b1-4)GlcNAc(b1-3)Gal(b1-3)GlcNAc. A digest of the protocol: as §1
Assay [13] has as its target Gal(b1-4)GlcNAc(b1-3)Gal(b1-4)Glc. A digest of the protocol: as §1
Assay [14] deals with Gal(b1-4)GlcNAc(b1-3)Gal(b1-4)GlcNAc. A digest of the protocol:
as §1

For assay [15], the target named is Gal(b1-4)GlcNAc(b1-3)Gal(b1-4)GlcNAc(b1-2)Man(a1-3)[Gal(b1-4)GlcNAc(b1-3)Gal(b1-4)GlcNAc(b1-2)Man(a1-6)]Man(b1-4)GlcNAc(b1-4)GlcNAc. A digest of the protocol: as §1
The target of assay [16] is Gal(b1-4)GlcNAc(b1-3)Gal(b1-4)GlcNAc(b1-2)Man(a1-3)[Gal(b1-4)GlcNAc(b1-3)Gal(b1-4)GlcNAc(b1-2)Man(a1-6)]Man(b1-4)GlcNAc(b1-4)[Fuc(a1-6)]GlcNAc. A digest of the protocol: as §1
Assay [17] concerns the target Gal(b1-4)GlcNAc(b1-3)Gal(b1-4)GlcNAc(b1-2)[Gal(b1-4)GlcNAc(b1-3)Gal(b1-4)GlcNAc(b1-6)]Man(a1-6)[Gal(b1-4)GlcNAc(b1-3)Gal(b1-4)GlcNAc(b1-2)Man(a1-3)]Man(b1-4)GlcNAc(b1-4)GlcNAc. A digest of the protocol: as §1
Assay [18] deals with Gal(b1-4)GlcNAc(b1-3)Gal(b1-4)GlcNAc(b1-2)[Gal(b1-4)GlcNAc(b1-3)Gal(b1-4)GlcNAc(b1-6)]Man(a1-6)[Gal(b1-4)GlcNAc(b1-3)Gal(b1-4)GlcNAc(b1-2)Man(a1-3)]Man(b1-4)GlcNAc(b1-4)[Fuc(a1-6)]GlcNAc. A digest of the protocol:
as §1

The other results are listed elsewhere or left out.

B1: Epa2 (Candida glabrata) (protein)
chain: MGSSHHHHHHSSGLVPRGSHMASSKDPTSFPMGCSPQVLKTQPGLAVKLYSYGHPVPGCAYNTYQYPDFPRSGYKKERKLADITGVNGRIDIDLKPNDPCRVLSGNLPSNYNYQNTLTYTNFTMILYGYFQPKVTGYHTFNLEADDLLFMNLGAGNAFDCCRAESTLDNFGNYQSYSIWGTDKATADLTVFLVSGIYYPIRLFYVNRDNNAVLDFSFSTEFNKEIIHDFTSYFFSASDEEQCPGNI
As to B1, the “glycan array binding signal (z-score)” value in assay [1] is -0.753; in assay [2], -0.741; in [3], 0.106; in assay [4], -0.495; in assay [5] it was -0.305; in assay [6], -0.379. Moreover, the “glycan array binding signal (z-score)” value in assay [7] is -0.121; in assay [8], 0.429; in assay [9], -1.25; in assay [10] it was 0.04; in [11], 0.503; in assay [12], -0.725. Besides, the “glycan array binding signal (z-score)” value is 0.248 in [13]; -0.158 in assay [14]; 1.61 in assay [15]; 0.286 in assay [16]; 0.94 in assay [17]; 0.612 in assay [18].
